PubChem BioAssay AID1671190 (National Center for Advancing Translational Sciences (NCATS), 2021)
Out of some 580,000 compounds screened, about 6,100 (1.1%) were called active. Inconclusive means that the source gave no clear call. Such entries were picked first, then a sample of the others. Calls come from the whole dose curve; as a rule, active = well fitted inhibition curve with a large enough effect; inconclusive = small, poorly fitted or top-dose-only effect, or another doubt; inactive = no such curve, though single readings can be large or run the other way. Potencies of inconclusive entries are doubtful fits and often do not repeat.

The chains behind the UniProt entries cited, without tags or fusion partners.
UniProt P18054, whole entry, looked up: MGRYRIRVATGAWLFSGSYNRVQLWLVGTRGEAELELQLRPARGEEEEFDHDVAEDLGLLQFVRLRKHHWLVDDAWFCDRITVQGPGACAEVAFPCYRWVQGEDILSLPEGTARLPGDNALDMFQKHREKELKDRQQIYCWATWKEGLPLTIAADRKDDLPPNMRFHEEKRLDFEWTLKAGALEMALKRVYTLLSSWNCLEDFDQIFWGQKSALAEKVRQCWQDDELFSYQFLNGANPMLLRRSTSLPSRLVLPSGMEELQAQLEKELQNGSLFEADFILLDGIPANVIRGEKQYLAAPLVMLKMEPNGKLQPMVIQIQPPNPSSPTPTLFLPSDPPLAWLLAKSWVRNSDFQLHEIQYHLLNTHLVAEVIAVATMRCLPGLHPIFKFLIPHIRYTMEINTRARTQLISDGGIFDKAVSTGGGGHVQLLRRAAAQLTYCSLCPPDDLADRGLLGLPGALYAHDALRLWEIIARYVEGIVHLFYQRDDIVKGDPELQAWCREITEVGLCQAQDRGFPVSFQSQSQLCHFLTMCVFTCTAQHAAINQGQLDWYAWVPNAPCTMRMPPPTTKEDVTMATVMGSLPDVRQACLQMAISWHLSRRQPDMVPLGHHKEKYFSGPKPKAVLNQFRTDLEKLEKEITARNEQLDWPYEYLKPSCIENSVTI

target: Polyunsaturated fatty acid lipoxygenase ALOX12 (Homo sapiens) (UniProt P18054); test: Primary qHTS assay for inhibitors of human arachidonate 12S-lipoxygenase (ALOX12): Round 2; settings: purified 12hLO, xylenol orange hydroperoxide absorbance; activity change, negative = inhibition: at 108 µM (top of the series) unless noted
How it was run: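 Purified human 12hLO at 150 nM in 25 mM Hepes, 0.01% Triton X-100, pH 7.0, preincubated 15 min at room temperature with compound. Reaction started with 40 uM arachidonic acid, 30 min at room temperature. Hydroperoxide measured by Fe-xylenol orange, 573/405 nm absorbance ratio.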
% is set by controls: 0 for no effect and ±100 for the full control effect; potency is the fitted concentration of half-maximal effect.

Row | Compound | Potency | activity change, negative = inhibition
1 | CCOC(=O)c1c(NC(=O)/C=C/C(=O)O)sc(C)c1-c1ccc(C(C)(C)C)cc1 | inconclusive: 79.4 µM [inhibitor, partial curve, poor fit] | 
2 | COc1ccc(CCNc2ncccc2C#N)cc1OC | inconclusive: 6.31 µM [inhibitor, partial curve, poor fit] | 
3 | Cc1[nH]c2cc3c(-c4ccccc4)cc(-c4ccccc4)nc3cc2c1C | inconclusive: 2.24 µM [inhibitor, full curve, poor fit] | 
4 | CC(C)CNC(=O)C(C)Sc1cc(C(=O)NC2CC2)c2ccccc2n1 (stereo unspecified) |  | inactive: -2.41%
5 | Cc1ccc(C(C[N+](=O)[O-])c2c(C)[nH]n(-c3ccccc3)c2=O)cc1 (stereo unspecified) | inconclusive: 56.2 µM [inhibitor, partial curve, poor fit] | 
6 | Cc1ccc(-c2cc(C(=O)OCC(=O)N3CCCC3=O)c3ccccc3n2)o1 | inconclusive: 11.2 µM [inhibitor, full curve, poor fit] | 
7 | COc1cccc(-n2nnnc2SCC(=O)Nc2cccc(NC(C)=O)c2)c1 |  | inactive: 17.1%
8 | Cc1ccc(-c2nc(Cn3cnc(C#N)n3)co2)cc1 |  | inactive: -6.43%
9 | CC(CC(=O)NC1CCCCC1)(C(=O)O)c1ccccc1 (stereo unspecified) | inconclusive: 178 µM [inhibitor, partial curve, poor fit] | 
10 | Nc1nn2c(-c3ccccc3)cc(=O)[nH]c2c1N=Nc1ccc(Br)cc1 | inconclusive: 50.1 µM [inhibitor, partial curve, poor fit] | 
11 | CC(CN1CCOCC1)OC(=O)c1ccc(Cl)cc1Cl (stereo unspecified) | inconclusive: 89.1 µM [inhibitor, single point] | 
12 | CCOc1ccc(NC(=S)N2CCC(C(O)(c3ccccc3)c3ccccc3)CC2)cc1 | inconclusive: 44.7 µM [inhibitor, partial curve, poor fit] | 
13 | COc1cccc(-c2ccc(-c3noc(-c4ccccc4Br)n3)c(OC)n2)c1 |  | inactive: -8%
14 | COc1cc(-c2nc(-c3ccc4c(c3)[nH]c(=O)n4C)no2)cc(OC)c1OC |  | inactive: -17.8%
15 | CCCCCCCCCCNC(=S)Nc1ccccc1 | inconclusive: 44.7 µM [inhibitor, full curve, poor fit] | 
16 | O=c1cc(-c2ccccn2)oc2c(-c3ccc(CO)cc3)nccc12 | inconclusive: 35.5 µM [inhibitor, partial curve] | 
17 | CN(C)C(CNC(=O)c1cc(Br)c(Br)s1)c1ccco1 (stereo unspecified) | inconclusive: 44.7 µM [inhibitor, partial curve, poor fit] | 
18 | COc1ccc2[nH]c(O)c(N=O)c2c1 | inconclusive: 56.2 µM [inhibitor, partial curve, poor fit] | 
19 | N#Cc1ccccc1C(=O)c1ccc(Br)cc1 |  | inactive: 45.4%
20 | O=C(C1=Cc2sc3c(c2CS1)CCCC3)N1CCC2(CC1)OCCO2 | active: 35.5 µM | 
21 | COCc1cn(CC[C@@H]2CC[C@@H](NC(=O)Nc3ccc4c(c3)OCO4)[C@@H](CO)O2)nn1 | inconclusive: 31.6 µM [inhibitor, partial curve, poor fit] | 
22 | CCCS(=O)(=O)N1CC[C@H]2NC(=O)N(c3ccc(F)cc3)C(=O)[C@H]21 |  | inactive: 2.19% [at 176 µM]
23 | c1ccc2c(NCCCN3CCOCC3)c3ccccc3nc2c1 |  | inactive: -3.64%

Row | Compound | Potency | activity change, negative = inhibition
24 | CC(C)(C)NC(=O)CSc1ncc(-c2ccc(Cl)cc2)o1 |  | inactive: -21%
25 | COc1cccc2cc(C(C)=O)c(=O)oc12 |  | inactive: 4.64%
26 | CC1CCN(c2nc3c(c(=O)n(Cc4ccccc4)c(=O)n3C)n2C)CC1 | inconclusive: 2.82 µM [inhibitor, full curve] | 
27 | O=C(NCc1ccccc1)C(C1CC1)n1c(=O)c(-c2ccco2)nc2ccccc21 (stereo unspecified) | inconclusive: 50.1 µM [inhibitor, partial curve, poor fit] | 
28 | N#Cc1c(N)nc2c(c1-c1cccc(O)c1)CCCCCC2 |  | inactive: -3.95%
29 | CN(C)c1ccc(NC(=O)c2ccc(COc3cccc(Cl)c3)o2)cc1 | inconclusive: 79.4 µM [inhibitor, single point] | 
30 | O=C(COc1ccc(Br)cc1)Nc1ccc2c(=O)c3ccccc3oc2c1 | inconclusive: 141 µM [inhibitor, single point] | 
31 | CCCC[C@@H]1CCCO[C@@](C(=O)NCc2ccc(C)o2)(C(F)(F)F)C1 | inconclusive: 39.8 µM [inhibitor, partial curve, poor fit] | 
32 | O=C(NCc1ccccc1)c1cccc(NC(=O)C2CCCCC2)c1 |  | inactive: -2.41%
33 | O=C(N/N=C\c1ccc(-c2ccccc2[N+](=O)[O-])o1)C1COc2ccccc2O1 (stereo unspecified) |  | inactive: 5.44%
34 | O=C1NC(=S)SC1=Cc1ccccc1C(=O)O | inconclusive: 44.7 µM [inhibitor, partial curve, poor fit] | 
35 | CC(C)Cn1c(Cn2cccn2)nc2cc(NC(=O)c3ccccc3)ccc21 | inconclusive: 63.1 µM [inhibitor, partial curve, poor fit] | 
36 | O=C(/C=C/c1ccccc1Cl)N[C@@H]1C[C@H]2CC[C@@H]1C2 |  | inactive: -3.76%
37 | COc1ccc(NC(=O)CSc2nc(N)c(NC(=O)c3ccccc3F)c(=O)[nH]2)cc1 | inconclusive: 44.7 µM [inhibitor, partial curve, poor fit] | 
38 | O=C(c1ccc(Br)o1)N1CCN=C1SCc1cccnc1 |  | inactive: -8.03%
39 | COc1ccc(-c2nc(Cn3ncc4ccccc4c3=O)co2)cc1 | inconclusive: 100 µM [inhibitor, single point] | 
40 | O=S(=O)(c1ccc(Cl)cc1)c1nc(-c2ccccc2Br)oc1NCc1ccccc1 |  | inactive: -8.89%
41 | CNS(=O)(=O)c1ccc2ccccc2c1 |  | inactive: -33.2%
42 | CC(NC(=O)CCc1ncc(-c2ccccc2)o1)c1ccc2c(c1)NC(=O)CO2 (stereo unspecified) |  | inactive: -12.9%
43 | Cn1c(C(=O)N2CCN(c3nc4ccccc4s3)CC2)cc2sccc21 |  | inactive: -21.1%
44 | COc1ccc(Cl)cc1Nc1cc(C)nc2ccccc12 | inconclusive: 79.4 µM [inhibitor, partial curve, poor fit] | 
45 | Cc1ccc(C(c2cccc([N+](=O)[O-])c2)c2ccc(C)s2)s1 |  | inactive: 24.1%
46 | COCc1cccc(C(=O)NC2CC(c3nnc(CN(C)C)n3C)C2)n1 (stereo unspecified) | inconclusive: 7.94 µM [inhibitor, full curve, poor fit] | 

2 entries from above, as tab-separated lines:
Row	Compound	Potency	activity change, negative = inhibition
45	Cc1ccc(C(c2cccc([N+](=O)[O-])c2)c2ccc(C)s2)s1		inactive: 24.1%
46	COCc1cccc(C(=O)NC2CC(c3nnc(CN(C)C)n3C)C2)n1 (stereo unspecified)	inconclusive: 7.94 µM [inhibitor, full curve, poor fit]	
